Columns and labels:
[1] = Payne Effect, ASTM D8059 strain sweep; settings: for G′@0.100%: 0.100% strain; for G′@1.00%: 1.00% strain; for G′@100.000%: 100.000% strain; for Payne Effect (0.1% to 100%): strain sweep 0.1% to 100%; for Payne Effect (1.0% to 100%): strain sweep 1.0% to 100%
[2] = Abrasion resistance, ASTM D5963 (Rotary Drum Abrader), non-rotating; settings: for Abrasion Resistance Index, %: fixed (non-rotating) method
[3] = Dispersion, ASTM D7723 (Macro-Dispersion of Fillers in Compounds); settings: additive 3.0 PHR

Compound	G′@0.100% [1]	G′@1.00% [1]	G′@100.000% [1]	Payne Effect (0.1% to 100%) [1]	Payne Effect (1.0% to 100%) [1]	Abrasion Resistance Index, % [2]	Dispersion Percent (%) [3]	% Difference from Control 1 ([1]; Payne Effect (0.1% to 100%))	% Difference from Control 1 ([1]; Payne Effect (1.0% to 100%))	abrasion resistance relative to the controls, in words [2]
CCCCCCCC/C=C\CCCCCCCC(=O)NCCNCCN [Inventive Ex. 1, diethylenetriamine (DETA) oleic acid amidoamine]	393 1-Pa	378 kPa	113 kPa	280 kPa	264 1-Pa	144%	92%			
CCCCCCCC/C=C\CCCCCCCC(=O)NCCNCCNC(=O)CCCCCCC/C=C\CCCCCCCC [Inventive Ex. 3, diethylenetriamine (DETA) oleic acid bisamide]	416 1-Pa	403 kPa	118 kPa	298 kPa	285 1-Pa		95%			
CCCCCCCC/C=C\CCCCCCCC1=NCCN1CCN [Inventive Ex. 2, diethylenetriamine (DETA) oleic acid imidazoline]	420 1-Pa	392 kPa	116 kPa	304 kPa	276 1-Pa	153%	93%			
CCCCCCCC/C=C\CCCCCCCC(=O)NCCCN(C)C [Inventive Ex. 6, dimethylaminopropylamine (DMAPA) oleic acid amidoamine]	450 1-Pa	419 kPa	119 kPa	331 kPa	300 1-Pa		97%			
tetraethylenepentamine (TEPA) oleic acid amidoamine [Inventive Ex. 5]				325 kPa	316 1-Pa		94%	−4.28%	2.36%	slightly lower in abrasion resistance

Reference: US20250109275A1, “AMINE FATTY ACID ADDUCTS AS TIRE COMPOUNDING ADDITIVES” (priority 2023, published 2025)
